The values below come from patent US20240044859A1, “METHOD FOR ASSESSING AROMA COMPONENT AND METHOD FOR PREPARING FLAVOR COMPOSITION” (Takasago International Corporation, priority 2020, published 2024).

One data set can be described thus: Retronasal aroma measured by PTR-TOFMS after consuming a flavored jelly sample (sugar/gelatin/water base), power function fit C=a*t^-b. In kind it is in vivo, human. The conditions noted are these: Reference product 2 or 3 at 0.3% in jelly base, 5° C., 10 g consumed; averaged over multiple measurements.
Take `CC(=O)c1ccccc1N` [o-Aminoacetophenone]: the “a (area under the curve per unit amount (ppm) for the first breath)” value was 0.02 and the “b (coefficient representing the degree of decay of the area under the curve)” value is reported as 0.4.

Take `COc1ccc(C=O)cc1` [p-Anisaldehyde]: the “a (area under the curve per unit amount (ppm) for the first breath)” value was found to be 0.1 and the “b (coefficient representing the degree of decay of the area under the curve)” value is listed as 0.3.

For `C=CCc1ccc(OC(C)=O)c(OC)c1` [Eugenol acetate], the “a (area under the curve per unit amount (ppm) for the first breath)” value was 0.01 and the “b (coefficient representing the degree of decay of the area under the curve)” value came to 0.8.

With `C=C1CCC2CC1C2(C)C` (stereo not drawn) [β-pinene], the “a (area under the curve per unit amount (ppm) for the first breath)” value was determined as 1.9 and the “b (coefficient representing the degree of decay of the area under the curve)” value came out at 1.8.

Turning to `CC(=O)Oc1ccc(C)cc1` [p-Tolyl acetate], the “a (area under the curve per unit amount (ppm) for the first breath)” value is on record as 0.8 and the “b (coefficient representing the degree of decay of the area under the curve)” value was 1.4.

`CCCCC/C=C/C=O` [Trans-2-octenal]: the “a (area under the curve per unit amount (ppm) for the first breath)” value was 0.7 and the “b (coefficient representing the degree of decay of the area under the curve)” value is 1.4.

A short description of the next data set: Retronasal aroma measured by PTR-TOFMS after drinking a flavored beverage sample (ion-exchanged water base), power function fit C=a*t^-b. Conditions: Reference product 1 at 0.1% in ion-exchanged water, 5° C., 10 mL drunk; averaged over multiple measurements. The class given is in vivo, human.
As to `O=CCc1ccccc1` [Phenylacetaldehyde], the “a (area under the curve per unit amount (ppm) for the first breath)” value is given as 0.3 and the “b (coefficient representing the degree of decay of the area under the curve)” value amounted to 1.0.

For `c1ccc2scnc2c1` [Benzothiazole], the “a (area under the curve per unit amount (ppm) for the first breath)” value is 0.8 and the “b (coefficient representing the degree of decay of the area under the curve)” value came out at 0.7.

Take `CCC=CC=CC=O` [2,4-Heptadienal]: the “a (area under the curve per unit amount (ppm) for the first breath)” value was found to be 1.1 and the “b (coefficient representing the degree of decay of the area under the curve)” value amounted to 2.9.

Take `C=CCOC(=O)CCCCC` [Allyl hexanoate]: the “a (area under the curve per unit amount (ppm) for the first breath)” value stood at 2.5 and the “b (coefficient representing the degree of decay of the area under the curve)” value came out at 2.9.

As to `Cc1ccc(C(C)C)cc1` [p-Cymene], the “a (area under the curve per unit amount (ppm) for the first breath)” value stood at 2.9 and the “b (coefficient representing the degree of decay of the area under the curve)” value amounted to 2.5.

For the compound `CC1=C(O)C(=O)CC1` [2-Hydroxy-3-methyl-2-cyclopentenone], the “a (area under the curve per unit amount (ppm) for the first breath)” value is 0.02 and the “b (coefficient representing the degree of decay of the area under the curve)” value is given as 0.9.
